{"source": "PubChem BioAssay AID686937, Drosophila RNAi Screening Center | 2013", "assay": "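Genes in the fly needed for secretion of protein constitutively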 (primary screen)", "cell system": "Drosophila S2 cells expressing secreted horseradish peroxidase", "knock-down reagent": "long dsRNA against Drosophila genes", "time to read-out": "about 5.5 days (5 days dsRNA, then 12 h reporter induction)", "treatment": "reporter expression induced after 5 days of dsRNA, read 12 h later; inducer not stated", "detection": "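After 5 days of dsRNA and 12 h of reporter induction, medium peroxidase read by chemiluminescence and scored as per-plate z-score; higher values mean more reporter released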", "reading the numbers": "z-score: higher = more reporter secreted into medium", "note": "In all, the deposit lists about 23,000 reagents; below is an unselected part of those with a known target gene and a result. 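Reduced-secretion tags in replicate 1 do not always agree with the z-scores; no criterion for assigning the tags was given.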 Reagents against one gene are numbered here. A plus sign joins genes that one reagent is predicted to hit. Not all columns of the deposit are shown. Reagent sequences are not shown. The record does not give: the amount of reagent."}
{"target": "Sc2", "reagent no.": 1, "z-score, replicate 1": 0.51}
{"target": "alphaTub84D", "reagent no.": 1, "z-score, replicate 1": -1.21}
{"target": "CG15395", "reagent no.": 1, "z-score, replicate 1": 0.1}
{"target": "Upf3", "reagent no.": 1, "z-score, replicate 1": 0.17}
{"target": "rl", "reagent no.": 1, "z-score, replicate 1": -0.41}
{"target": "rl", "reagent no.": 2, "z-score, replicate 1": -1.06}
{"target": "rl", "reagent no.": 3, "z-score, replicate 1": -0.8}
{"target": "CG15717", "reagent no.": 1, "z-score, replicate 1": 0.38}
{"target": "CG13198", "reagent no.": 1, "z-score, replicate 1": 0.38}
{"target": "aqz + CG9837", "reagent no.": 1, "z-score, replicate 1": 0.31}
{"target": "CG11158", "reagent no.": 1, "z-score, replicate 1": 0.08}
{"target": "fid", "reagent no.": 1, "z-score, replicate 1": -0.26}
{"target": "fid", "reagent no.": 2, "z-score, replicate 1": 0.5}
{"target": "Caf1-55", "reagent no.": 1, "z-score, replicate 1": 0.42}
{"target": "CG6415", "reagent no.": 1, "z-score, replicate 1": 0.27}
{"target": "Coq8", "reagent no.": 1, "z-score, replicate 1": 0.28}
